Assay results as given in article PMC8899846.
Changes are numbered by the printed parent chain. No constants are given. Whether binding was seen depends on the method and setting. In cells and extracts the contact can be indirect. Some binding calls cover weakened binding; strength is not graded here. Sequences can lack the tags named with a protein.

Chains of the proteins cited; added tags and fusions are not shown. Residues count along the entry.
UniProt O75460, residues 19-977: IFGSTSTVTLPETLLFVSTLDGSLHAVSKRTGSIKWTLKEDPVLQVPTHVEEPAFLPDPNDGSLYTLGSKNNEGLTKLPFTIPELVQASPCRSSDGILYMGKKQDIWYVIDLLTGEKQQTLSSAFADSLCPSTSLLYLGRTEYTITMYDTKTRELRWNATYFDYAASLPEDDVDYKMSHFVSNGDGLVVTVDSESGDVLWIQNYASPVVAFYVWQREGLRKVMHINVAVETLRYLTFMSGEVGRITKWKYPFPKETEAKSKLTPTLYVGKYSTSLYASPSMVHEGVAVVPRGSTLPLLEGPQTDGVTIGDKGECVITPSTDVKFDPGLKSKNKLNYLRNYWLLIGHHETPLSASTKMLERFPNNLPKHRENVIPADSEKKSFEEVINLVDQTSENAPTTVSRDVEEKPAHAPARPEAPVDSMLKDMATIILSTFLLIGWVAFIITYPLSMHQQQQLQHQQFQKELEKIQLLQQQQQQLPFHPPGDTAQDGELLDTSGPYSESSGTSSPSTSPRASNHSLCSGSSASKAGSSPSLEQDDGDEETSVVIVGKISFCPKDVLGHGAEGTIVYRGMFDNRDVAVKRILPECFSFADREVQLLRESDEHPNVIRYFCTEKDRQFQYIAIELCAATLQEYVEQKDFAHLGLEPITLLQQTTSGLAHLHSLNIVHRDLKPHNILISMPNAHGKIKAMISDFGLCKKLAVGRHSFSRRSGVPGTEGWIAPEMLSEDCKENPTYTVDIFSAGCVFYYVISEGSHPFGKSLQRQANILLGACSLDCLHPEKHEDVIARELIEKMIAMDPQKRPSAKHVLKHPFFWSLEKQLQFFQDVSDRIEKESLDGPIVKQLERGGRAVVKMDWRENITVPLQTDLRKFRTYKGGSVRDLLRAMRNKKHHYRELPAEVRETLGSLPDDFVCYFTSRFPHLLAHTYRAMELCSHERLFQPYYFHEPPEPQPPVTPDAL

What was measured:
Y306F RtcB-Flag (mouse) = target: T1, Y306F RtcB-Flag (mouse) (UniProt Q99LF4); assay: co-IP; HEK293T co-transfected with 1 ug wt IRE1α and 1 ug WT or mutant RtcB-Flag plasmid, lysed 24 h later; CHAPS buffer (30 mM Tris-HCl pH 7.5, 150 mM NaCl, 1.5% CHAPS); IP with anti-Flag antibody, Dynabeads protein G; immunoblot with anti-IRE1α
T1 sequence: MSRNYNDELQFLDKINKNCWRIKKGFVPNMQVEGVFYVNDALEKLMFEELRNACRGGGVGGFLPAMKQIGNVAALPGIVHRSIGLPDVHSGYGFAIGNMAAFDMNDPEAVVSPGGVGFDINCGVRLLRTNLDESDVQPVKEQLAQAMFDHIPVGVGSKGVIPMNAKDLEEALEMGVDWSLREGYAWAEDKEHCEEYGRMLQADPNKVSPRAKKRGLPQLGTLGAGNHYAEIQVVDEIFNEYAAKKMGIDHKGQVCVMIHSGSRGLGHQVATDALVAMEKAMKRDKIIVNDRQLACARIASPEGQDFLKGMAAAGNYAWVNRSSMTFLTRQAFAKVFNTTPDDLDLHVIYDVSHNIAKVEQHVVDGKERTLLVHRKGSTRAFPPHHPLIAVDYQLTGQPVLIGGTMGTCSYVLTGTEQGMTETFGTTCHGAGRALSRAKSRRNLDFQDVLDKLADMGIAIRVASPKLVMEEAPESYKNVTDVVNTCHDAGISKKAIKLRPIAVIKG

[1] = target: T2, wt mouse RtcB-Flag (pCMV3-mRTCB-Flag) (mouse) (UniProt Q99LF4); assay: as above
T2 sequence: T1 sequence with F306Y

binding (Y306F RtcB-Flag (mouse)): binds
binding [1]: binds
Substance: IRE1-WT (inositol-requiring enzyme 1 alpha; pCDH-CMV-IRE1α-EF1-Puro-copGFP) (from UniProt O75460 19-977)
